From patent US20240092890A1
Results are given in words; binding and its absence hold for the method and conditions named. Some entries that bind do so weakly or less than the wild type.

B1: Antibody 9 (bispecific antibody)
chain: QVQLQQSGAELVKPGSSVKISCKASGYTFTRNFIHWIKQQPGNGLEWIGWIFPGDGDTEYNQKFNGKATLTADKSSSTAYMQLSSLTSEDSAVYFCARGNYNYEYFDYWGQGVMVTVSSGGGGSGGGGSGGGGSDIQMTQSPASLSASLGETVSIECLASEDIYSYLAWYQQKPGKSPQLLIFAANRLQDGVPSRFSGSGSGTQFSLKISGMQPEDEGDYFCLQGSKFPYTFGPGTKLELNGGGGSQVQLVQSGGGVVQPGRSLRLSCKASGYTFTRYTMHWVRQAPGKGLEWIGYINPSRGYTNYNQKVKDRFTISRDNSKNTAFLQMDSLRPEDTGVYFCARYYDDHYSLDYWGQGTPVTVSSGGGGSGGGGSGGGGSDIQMTQSPSSLSASVGDRVTITCSASSSVSYMNWYQQTPGKAPKRWIYDTSKLASGVPSRFSGSGSGTDYTFTISSLQPEDIATYYCQQWSSNPFTFGQGTKLQITRHHHHHH
B2: Antibody 16 (bispecific antibody)
heavy: QVQLQQSGAELVKPGSSVKISCKASGYTFTRNFIHWIKQQPGNGLEWIGWIFPGDGDTEYNQKFNGKATLTADKSSSTAYMQLSSLTSEDSAVYFCARGNYNYEYFDYWGQGVMVTVSSASTKGPSVFPLAPSSKSTSGGTAALGCLVKDYFPEPVTVSWNSGALTSGVHTFPAVLQSSGLYSLSSVVTVPSSSLGTQTYICNVNHKPSNTKVDKRVEPKSCGGGGSQVQLVQSGGGVVQPGRSLRLSCKASGYTFTRYTMHWVRQAPGKGLEWIGYINPSRGYTNYNQKVKDRFTISRDNSKNTAFLQMDSLRPEDTGVYFCARYYDDHYSLDYWGQGTPVTVSSGGGGSGGGGSGGGGSDIQMTQSPSSLSASVGDRVTITCSASSSVSYMNWYQQTPGKAPKRWIYDTSKLASGVPSRFSGSGSGTDYTFTISSLQPEDIATYYCQQWSSNPFTFGQGTKLQITRHHHHHH
light: DIQMTQSPASLSASLGETVSIECLASEDIYSYLAWYQQKPGKSPQLLIFAANRLQDGVPSRFSGSGSGTQFSLKISGMQPEDEGDYFCLQGSKFPYTFGPGTKLELNRTVAAPSVFIFPPSDEQLKSGTASVVCLLNNFYPREAKVQWKVDNALQSGNSQESVTEQDSKDSTYSLSSTLTLSKADYEKHKVYACEVTHQGLSSPVTKSFNRGEC
B3: Antibody 18 (bispecific antibody)
heavy: QVQLQQSGAELVKPGSSVKISCKASGYTFTRNFIHWIKQQPGNGLEWIGWIFPGDGDTEYNQKFNGKATLTADKSSSTAYMQLSSLTSEDSAVYFCARGNYNYEYFDYWGQGVMVTVSSASTKGPSVFPLAPSSKSTSGGTAALGCLVKDYFPEPVTVSWNSGALTSGVHTFPAVLQSSGLYSLSSVVTVPSSSLGTQTYICNVNHKPSNTKVDKRVEPKSCGGGGSQVQLVQSGGGVVQPGRSLRLSCKASGYTFTRYTMHWVRQAPGKGLEWIGYINPSRGYTNYNQKVKDRFTISRDNSKNTAFLQMDSLRPEDTGVYFCARYYDDHYSLDYWGQGTPVTVSSGGGGSGGGGSGGGGSDIQMTQSPSSLSASVGDRVTITCSASSSVSYMNWYQQTPGKAPKRWIYDTSKLASGVPSRFSGSGSGTDYTFTISSLQPEDIATYYCQQWSSNPFTFGQGTKLQITRAAAGGGQPREPQVYTLPPSREEMTKNQVSLTCLVKGFYPSDIAVEWESNGQPENNYKTTPPVLDSDGSFFLYSKLTVDKSRWQQGNVFSCSVMHEALHNHYTQKSLSLSPGK
light: DIQMTQSPASLSASLGETVSIECLASEDIYSYLAWYQQKPGKSPQLLIFAANRLQDGVPSRFSGSGSGTQFSLKISGMQPEDEGDYFCLQGSKFPYTFGPGTKLELNRTVAAPSVFIFPPSDEQLKSGTASVVCLLNNFYPREAKVQWKVDNALQSGNSQESVTEQDSKDSTYSLSSTLTLSKADYEKHKVYACEVTHQGLSSPVTKSFNRGEC
B4: Antibody 19 (bispecific antibody)
heavy: QVQLQQSGAELVKPGSSVKISCKASGYTFTRNFIHWIKQQPGNGLEWIGWIFPGDGDTEYNQKFNGKATLTADKSSSTAYMQLSSLTSEDSAVYFCARGNYNYEYFDYWGQGVMVTVSSASTKGPSVFPLAPSSKSTSGGTAALGCLVKDYFPEPVTVSWNSGALTSGVHTFPAVLQSSGLYSLSSVVTVPSSSLGTQTYICNVNHKPSNTKVDKRVEPKSCGGGGSQVQLVQSGGGVVQPGRSLRLSCKASGYTFTRYTMHWVRQAPGKGLEWIGYINPSRGYTNYNQKVKDRFTISRDNSKNTAFLQMDSLRPEDTGVYFCARYYDDHYSLDYWGQGTPVTVSSGGGGSGGGGSGGGGSDIQMTQSPSSLSASVGDRVTITCSASSSVSYMNWYQQTPGKAPKRWIYDTSKLASGVPSRFSGSGSGTDYTFTISSLQPEDIATYYCQQWSSNPFTFGQGTKLQITRGGGGSQVQLQQSGAELVKPGSSVKISCKASGYTFTRNFIHWIKQQPGNGLEWIGWIFPGDGDTEYNQKFNGKATLTADKSSSTAYMQLSSLTSEDSAVYFCARGNYNYEYFDYWGQGVMVTVSSASTKGPSVFPLAPSSKSTSGGTAALGCLVKDYFPEPVTVSWNSGALTSGVHTFPAVLQSSGLYSLSSVVTVPSSSLGTQTYICNVNHKPSNTKVDKRVEPKSCHHHHHH
light: DIQMTQSPASLSASLGETVSIECLASEDIYSYLAWYQQKPGKSPQLLIFAANRLQDGVPSRFSGSGSGTQFSLKISGMQPEDEGDYFCLQGSKFPYTFGPGTKLELNRTVAAPSVFIFPPSDEQLKSGTASVVCLLNNFYPREAKVQWKVDNALQSGNSQESVTEQDSKDSTYSLSSTLTLSKADYEKHKVYACEVTHQGLSSPVTKSFNRGEC
B5: Antibody 20 (bispecific antibody)
heavy: QVQLVQSGGGVVQPGRSLRLSCKASGYTFTRYTMHWVRQAPGKGLEWIGYINPSRGYTNYNQKVKDRFTISRDNSKNTAFLQMDSLRPEDTGVYFCARYYDDHYSLDYWGQGTPVTVSSGGGGSGGGGSGGGGSDIQMTQSPSSLSASVGDRVTITCSASSSVSYMNWYQQTPGKAPKRWIYDTSKLASGVPSRFSGSGSGTDYTFTISSLQPEDIATYYCQQWSSNPFTFGQGTKLQITRGGGGSQVQLQQSGAELVKPGSSVKISCKASGYTFTRNFIHWIKQQPGNGLEWIGWIFPGDGDTEYNQKFNGKATLTADKSSSTAYMQLSSLTSEDSAVYFCARGNYNYEYFDYWGQGVMVTVSSASTKGPSVFPLAPSSKSTSGGTAALGCLVKDYFPEPVTVSWNSGALTSGVHTFPAVLQSSGLYSLSSVVTVPSSSLGTQTYICNVNHKPSNTKVDKRVEPKSCHHHHHH
light: DIQMTQSPASLSASLGETVSIECLASEDIYSYLAWYQQKPGKSPQLLIFAANRLQDGVPSRFSGSGSGTQFSLKISGMQPEDEGDYFCLQGSKFPYTFGPGTKLELNRTVAAPSVFIFPPSDEQLKSGTASVVCLLNNFYPREAKVQWKVDNALQSGNSQESVTEQDSKDSTYSLSSTLTLSKADYEKHKVYACEVTHQGLSSPVTKSFNRGEC
B6: Antibody 22 (bispecific antibody)
heavy: QVQLVQSGGGVVQPGRSLRLSCKASGYTFTRYTMHWVRQAPGKGLEWIGYINPSRGYTNYNQKVKDRFTISRDNSKNTAFLQMDSLRPEDTGVYFCARYYDDHYSLDYWGQGTPVTVSSGGGGSGGGGSGGGGSDIQMTQSPSSLSASVGDRVTITCSASSSVSYMNWYQQTPGKAPKRWIYDTSKLASGVPSRFSGSGSGTDYTFTISSLQPEDIATYYCQQWSSNPFTFGQGTKLQITRGGGGSQVQLQQSGAELVKPGSSVKISCKASGYTFTRNFIHWIKQQPGNGLEWIGWIFPGDGDTEYNQKFNGKATLTADKSSSTAYMQLSSLTSEDSAVYFCARGNYNYEYFDYWGQGVMVTVSSASTKGPSVFPLAPSSKSTSGGTAALGCLVKDYFPEPVTVSWNSGALTSGVHTFPAVLQSSGLYSLSSVVTVPSSSLGTQTYICNVNHKPSNTKVDKRVEPKSCAAAGGGQPREPQVYTLPPSREEMTKNQVSLTCLVKGFYPSDIAVEWESNGQPENNYKTTPPVLDSDGSFFLYSKLTVDKSRWQQGNVFSCSVMHEALHNHYTQKSLSLSPGK
light: DIQMTQSPASLSASLGETVSIECLASEDIYSYLAWYQQKPGKSPQLLIFAANRLQDGVPSRFSGSGSGTQFSLKISGMQPEDEGDYFCLQGSKFPYTFGPGTKLELNRTVAAPSVFIFPPSDEQLKSGTASVVCLLNNFYPREAKVQWKVDNALQSGNSQESVTEQDSKDSTYSLSSTLTLSKADYEKHKVYACEVTHQGLSSPVTKSFNRGEC

What follows are binders tested against T1, protein having an Fc region and a His-tag added to the N-terminus of SEQ ID NO: 1 (assay: BLItz biolayer interferometry (Table 14)).
T1 sequence: RRMMRTKMRMRRM

binding, binds:
B1, B2, B3, B4, B5, B6
